Test results published in publication PMC5062614.
No constants are given. Whether binding was seen depends on the method and setting. For some assays here: Binding calls can cover weak binding; strength is not graded here. Sequences can lack the tags named with a protein. For some assays here: In cells and extracts the contact can be indirect.

Legend:
[1] = molecular target: T1, NPR3 fused with the DNA binding domain (BD) (Arabidopsis) (UniProt Q8L746); assay: two-hybrid; AD-JAZ (pGADT7, AH109) mated with BD-NPR3 or its derivatives (pGBKT7, Y187); growth on SD-Leu-Trp-His-Ade plates with 100 μM SA
T1 sequence: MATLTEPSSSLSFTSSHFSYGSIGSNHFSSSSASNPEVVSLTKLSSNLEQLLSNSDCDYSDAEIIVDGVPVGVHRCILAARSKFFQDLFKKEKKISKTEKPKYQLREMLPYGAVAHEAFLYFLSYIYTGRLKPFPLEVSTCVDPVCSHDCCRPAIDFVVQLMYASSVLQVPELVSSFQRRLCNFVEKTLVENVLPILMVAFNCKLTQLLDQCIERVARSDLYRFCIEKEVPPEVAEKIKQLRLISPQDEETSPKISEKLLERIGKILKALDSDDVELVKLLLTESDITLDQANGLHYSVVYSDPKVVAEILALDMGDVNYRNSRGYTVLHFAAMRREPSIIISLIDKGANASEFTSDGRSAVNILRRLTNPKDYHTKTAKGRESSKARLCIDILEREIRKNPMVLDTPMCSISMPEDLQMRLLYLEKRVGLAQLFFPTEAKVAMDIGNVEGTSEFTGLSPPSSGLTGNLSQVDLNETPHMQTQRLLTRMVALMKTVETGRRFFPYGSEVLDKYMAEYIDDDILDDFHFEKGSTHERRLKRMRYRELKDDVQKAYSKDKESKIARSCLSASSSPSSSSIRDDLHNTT

[2] = molecular target: T2, NPR4 fused with the DNA binding domain (BD) (Arabidopsis) (UniProt Q5ICL9); assay: two-hybrid; AD-JAZ (pGADT7) mated with BD-NPR4 (pGBKT7); SD-Leu-Trp-His-Ade plates without and with 100 μM SA; the text does not tell on which plates each result was seen
T2 sequence: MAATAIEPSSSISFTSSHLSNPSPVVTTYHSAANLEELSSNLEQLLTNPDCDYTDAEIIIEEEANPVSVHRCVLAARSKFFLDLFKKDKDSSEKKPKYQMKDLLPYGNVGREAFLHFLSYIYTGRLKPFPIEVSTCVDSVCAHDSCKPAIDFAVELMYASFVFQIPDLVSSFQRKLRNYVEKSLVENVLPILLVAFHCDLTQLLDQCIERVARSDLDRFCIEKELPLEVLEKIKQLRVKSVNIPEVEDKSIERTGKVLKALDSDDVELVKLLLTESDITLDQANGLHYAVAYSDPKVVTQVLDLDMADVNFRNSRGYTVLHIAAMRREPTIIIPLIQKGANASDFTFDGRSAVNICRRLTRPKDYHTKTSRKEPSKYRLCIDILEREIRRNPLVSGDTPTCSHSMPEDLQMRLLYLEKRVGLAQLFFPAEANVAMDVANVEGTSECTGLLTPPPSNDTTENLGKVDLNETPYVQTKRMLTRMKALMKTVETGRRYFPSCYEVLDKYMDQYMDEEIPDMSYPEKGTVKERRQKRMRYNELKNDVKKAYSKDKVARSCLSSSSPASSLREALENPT

[3] = molecular target: T1, NPR3 fused with the DNA binding domain (BD) (Arabidopsis); assay: two-hybrid; AD-JAZ (pGADT7, AH109) mated with BD-NPR3 or its derivatives (pGBKT7, Y187); growth on SD-Leu-Trp-His-Ade plates without SA
[4] = molecular target: T3, NPR3-GFP (35S:NPR3-GFP Arabidopsis transgenic line) (Arabidopsis) (UniProt Q8L746); assay: co-IP; Arabidopsis lines 35S:HA-JAZ1/35S:NPR3-GFP, /35S:NPR4-GFP or /35S:GFP, 4 h.p.i. with Psm ES4326/avrRpt2 (OD600nm=0.2) plus 40 μM MG115; GFP-Trap_A beads 2 h at 4 °C; blot with HA antibody
T3 sequence: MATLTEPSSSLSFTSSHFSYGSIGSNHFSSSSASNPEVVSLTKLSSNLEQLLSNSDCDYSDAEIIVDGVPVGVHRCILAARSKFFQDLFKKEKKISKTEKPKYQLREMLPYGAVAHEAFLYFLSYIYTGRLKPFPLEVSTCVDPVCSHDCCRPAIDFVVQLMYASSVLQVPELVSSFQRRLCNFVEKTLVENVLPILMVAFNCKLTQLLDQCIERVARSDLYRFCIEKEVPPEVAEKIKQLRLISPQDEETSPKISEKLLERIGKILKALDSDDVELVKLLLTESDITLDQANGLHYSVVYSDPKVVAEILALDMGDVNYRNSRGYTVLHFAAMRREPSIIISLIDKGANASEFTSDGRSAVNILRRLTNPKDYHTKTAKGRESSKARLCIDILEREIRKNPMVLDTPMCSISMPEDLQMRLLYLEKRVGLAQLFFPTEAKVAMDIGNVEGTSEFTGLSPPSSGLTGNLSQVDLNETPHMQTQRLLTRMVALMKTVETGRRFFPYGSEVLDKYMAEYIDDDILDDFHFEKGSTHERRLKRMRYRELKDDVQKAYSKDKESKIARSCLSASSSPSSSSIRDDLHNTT

[5] = molecular target: T4, NPR4-GFP (35S:NPR4-GFP Arabidopsis transgenic line) (Arabidopsis) (UniProt Q5ICL9); assay: as above
T4 sequence: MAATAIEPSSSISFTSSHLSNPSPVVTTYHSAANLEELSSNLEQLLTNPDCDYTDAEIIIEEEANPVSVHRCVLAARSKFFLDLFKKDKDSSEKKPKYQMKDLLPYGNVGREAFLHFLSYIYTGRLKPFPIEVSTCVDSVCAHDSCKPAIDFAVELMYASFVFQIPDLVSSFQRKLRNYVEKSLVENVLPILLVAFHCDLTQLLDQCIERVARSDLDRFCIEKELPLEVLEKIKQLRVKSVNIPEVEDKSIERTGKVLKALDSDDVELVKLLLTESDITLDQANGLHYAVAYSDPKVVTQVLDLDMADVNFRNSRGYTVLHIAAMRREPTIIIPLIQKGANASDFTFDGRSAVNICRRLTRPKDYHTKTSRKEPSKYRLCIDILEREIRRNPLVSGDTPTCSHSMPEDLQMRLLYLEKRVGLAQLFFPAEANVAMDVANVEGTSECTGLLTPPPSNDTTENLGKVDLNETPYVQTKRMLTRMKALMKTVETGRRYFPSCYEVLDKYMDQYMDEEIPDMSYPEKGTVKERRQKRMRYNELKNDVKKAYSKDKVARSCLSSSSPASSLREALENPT

NPR4-nLuc (Arabidopsis) = molecular target: T5, NPR4-nLuc (Arabidopsis) (UniProt Q5ICL9); assay: split reporter; split luciferase; cLuc-JAZ and NPR3-nLuc or NPR4-nLuc transiently co-expressed in N. benthamiana leaves for 2 days; 1 mM luciferin; images 0 and 3 h after 1 mM SA treatment
T5 sequence: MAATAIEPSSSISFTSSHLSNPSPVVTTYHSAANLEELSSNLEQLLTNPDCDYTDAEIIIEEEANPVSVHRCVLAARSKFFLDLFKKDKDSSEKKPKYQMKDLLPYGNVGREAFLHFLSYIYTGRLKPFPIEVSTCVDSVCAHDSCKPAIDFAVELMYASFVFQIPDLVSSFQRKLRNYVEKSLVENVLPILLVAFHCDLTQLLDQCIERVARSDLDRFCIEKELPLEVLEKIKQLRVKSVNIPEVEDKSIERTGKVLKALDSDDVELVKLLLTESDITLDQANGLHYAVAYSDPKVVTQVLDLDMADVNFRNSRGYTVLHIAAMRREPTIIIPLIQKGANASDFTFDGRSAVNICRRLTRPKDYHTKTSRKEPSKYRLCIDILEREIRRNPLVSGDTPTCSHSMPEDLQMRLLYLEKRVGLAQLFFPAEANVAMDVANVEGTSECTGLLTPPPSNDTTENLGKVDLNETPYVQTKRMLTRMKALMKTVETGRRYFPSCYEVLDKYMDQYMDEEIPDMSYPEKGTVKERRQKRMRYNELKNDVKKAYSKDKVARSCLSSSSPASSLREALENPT

NPR3-nLuc (Arabidopsis) = molecular target: T6, NPR3-nLuc (Arabidopsis) (UniProt Q8L746); assay: as above
T6 sequence: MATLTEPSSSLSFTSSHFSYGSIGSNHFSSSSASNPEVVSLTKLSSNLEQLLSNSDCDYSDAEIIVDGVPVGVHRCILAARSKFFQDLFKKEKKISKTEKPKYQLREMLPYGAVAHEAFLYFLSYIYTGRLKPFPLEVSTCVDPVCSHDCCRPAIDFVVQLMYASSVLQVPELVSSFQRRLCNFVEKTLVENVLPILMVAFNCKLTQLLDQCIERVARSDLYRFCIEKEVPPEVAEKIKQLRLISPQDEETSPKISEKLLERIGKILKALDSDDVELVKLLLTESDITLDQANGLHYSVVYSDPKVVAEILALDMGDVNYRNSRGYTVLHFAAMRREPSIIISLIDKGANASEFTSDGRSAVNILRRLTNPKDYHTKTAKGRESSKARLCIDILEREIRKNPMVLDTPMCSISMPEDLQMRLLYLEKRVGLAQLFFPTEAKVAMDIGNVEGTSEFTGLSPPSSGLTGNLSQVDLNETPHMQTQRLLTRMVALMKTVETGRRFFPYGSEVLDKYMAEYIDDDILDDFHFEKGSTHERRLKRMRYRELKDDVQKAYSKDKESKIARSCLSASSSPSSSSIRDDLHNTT

| Substance | binding [1] | binding [3] | other results |
| --- | --- | --- | --- |
| JAZ1 fused with the transcriptional activation domain (AD) (Arabidopsis) | binds | no binding (only without SA in the yeast medium) | binding [2]: no binding |
| HA-JAZ1 (Arabidopsis) | – | – | binding [4]: binds; binding [5]: binds |
| JAZ6 fused with the transcriptional activation domain (AD) (Arabidopsis) | binds | binds | – |
| cLuc-JAZ1 (Arabidopsis) | – | – | binding (NPR4-nLuc (Arabidopsis)): binds; binding (NPR3-nLuc (Arabidopsis)): binds |
| JAZ2 fused with the transcriptional activation domain (AD) (Arabidopsis) | binds | no binding (only without SA in the yeast medium) | – |
